Measured values published in publication PMC3478187 (EJNMMI Research, 2012).

Experiment: general procedure: Fmoc solid-phase peptide synthesis; Rink amide resin
Settings: conjugation step

Question: For DOTA-PEG5k-Lys-BN, which conjugation yield is on record?
Answer: above 96%
